The values below come from patent US20020164789A1.

Protein sequences, listed by entry. Tags and fused reporters are not part of them. Lines headed by an entry give the natural chain unless they say otherwise; changes in a name come on top. Chains listed by the source or under a name are the forms on record and can include a tag or linker. Residues count along the entry.
UniProt Q91ZX7, residues 20-4545: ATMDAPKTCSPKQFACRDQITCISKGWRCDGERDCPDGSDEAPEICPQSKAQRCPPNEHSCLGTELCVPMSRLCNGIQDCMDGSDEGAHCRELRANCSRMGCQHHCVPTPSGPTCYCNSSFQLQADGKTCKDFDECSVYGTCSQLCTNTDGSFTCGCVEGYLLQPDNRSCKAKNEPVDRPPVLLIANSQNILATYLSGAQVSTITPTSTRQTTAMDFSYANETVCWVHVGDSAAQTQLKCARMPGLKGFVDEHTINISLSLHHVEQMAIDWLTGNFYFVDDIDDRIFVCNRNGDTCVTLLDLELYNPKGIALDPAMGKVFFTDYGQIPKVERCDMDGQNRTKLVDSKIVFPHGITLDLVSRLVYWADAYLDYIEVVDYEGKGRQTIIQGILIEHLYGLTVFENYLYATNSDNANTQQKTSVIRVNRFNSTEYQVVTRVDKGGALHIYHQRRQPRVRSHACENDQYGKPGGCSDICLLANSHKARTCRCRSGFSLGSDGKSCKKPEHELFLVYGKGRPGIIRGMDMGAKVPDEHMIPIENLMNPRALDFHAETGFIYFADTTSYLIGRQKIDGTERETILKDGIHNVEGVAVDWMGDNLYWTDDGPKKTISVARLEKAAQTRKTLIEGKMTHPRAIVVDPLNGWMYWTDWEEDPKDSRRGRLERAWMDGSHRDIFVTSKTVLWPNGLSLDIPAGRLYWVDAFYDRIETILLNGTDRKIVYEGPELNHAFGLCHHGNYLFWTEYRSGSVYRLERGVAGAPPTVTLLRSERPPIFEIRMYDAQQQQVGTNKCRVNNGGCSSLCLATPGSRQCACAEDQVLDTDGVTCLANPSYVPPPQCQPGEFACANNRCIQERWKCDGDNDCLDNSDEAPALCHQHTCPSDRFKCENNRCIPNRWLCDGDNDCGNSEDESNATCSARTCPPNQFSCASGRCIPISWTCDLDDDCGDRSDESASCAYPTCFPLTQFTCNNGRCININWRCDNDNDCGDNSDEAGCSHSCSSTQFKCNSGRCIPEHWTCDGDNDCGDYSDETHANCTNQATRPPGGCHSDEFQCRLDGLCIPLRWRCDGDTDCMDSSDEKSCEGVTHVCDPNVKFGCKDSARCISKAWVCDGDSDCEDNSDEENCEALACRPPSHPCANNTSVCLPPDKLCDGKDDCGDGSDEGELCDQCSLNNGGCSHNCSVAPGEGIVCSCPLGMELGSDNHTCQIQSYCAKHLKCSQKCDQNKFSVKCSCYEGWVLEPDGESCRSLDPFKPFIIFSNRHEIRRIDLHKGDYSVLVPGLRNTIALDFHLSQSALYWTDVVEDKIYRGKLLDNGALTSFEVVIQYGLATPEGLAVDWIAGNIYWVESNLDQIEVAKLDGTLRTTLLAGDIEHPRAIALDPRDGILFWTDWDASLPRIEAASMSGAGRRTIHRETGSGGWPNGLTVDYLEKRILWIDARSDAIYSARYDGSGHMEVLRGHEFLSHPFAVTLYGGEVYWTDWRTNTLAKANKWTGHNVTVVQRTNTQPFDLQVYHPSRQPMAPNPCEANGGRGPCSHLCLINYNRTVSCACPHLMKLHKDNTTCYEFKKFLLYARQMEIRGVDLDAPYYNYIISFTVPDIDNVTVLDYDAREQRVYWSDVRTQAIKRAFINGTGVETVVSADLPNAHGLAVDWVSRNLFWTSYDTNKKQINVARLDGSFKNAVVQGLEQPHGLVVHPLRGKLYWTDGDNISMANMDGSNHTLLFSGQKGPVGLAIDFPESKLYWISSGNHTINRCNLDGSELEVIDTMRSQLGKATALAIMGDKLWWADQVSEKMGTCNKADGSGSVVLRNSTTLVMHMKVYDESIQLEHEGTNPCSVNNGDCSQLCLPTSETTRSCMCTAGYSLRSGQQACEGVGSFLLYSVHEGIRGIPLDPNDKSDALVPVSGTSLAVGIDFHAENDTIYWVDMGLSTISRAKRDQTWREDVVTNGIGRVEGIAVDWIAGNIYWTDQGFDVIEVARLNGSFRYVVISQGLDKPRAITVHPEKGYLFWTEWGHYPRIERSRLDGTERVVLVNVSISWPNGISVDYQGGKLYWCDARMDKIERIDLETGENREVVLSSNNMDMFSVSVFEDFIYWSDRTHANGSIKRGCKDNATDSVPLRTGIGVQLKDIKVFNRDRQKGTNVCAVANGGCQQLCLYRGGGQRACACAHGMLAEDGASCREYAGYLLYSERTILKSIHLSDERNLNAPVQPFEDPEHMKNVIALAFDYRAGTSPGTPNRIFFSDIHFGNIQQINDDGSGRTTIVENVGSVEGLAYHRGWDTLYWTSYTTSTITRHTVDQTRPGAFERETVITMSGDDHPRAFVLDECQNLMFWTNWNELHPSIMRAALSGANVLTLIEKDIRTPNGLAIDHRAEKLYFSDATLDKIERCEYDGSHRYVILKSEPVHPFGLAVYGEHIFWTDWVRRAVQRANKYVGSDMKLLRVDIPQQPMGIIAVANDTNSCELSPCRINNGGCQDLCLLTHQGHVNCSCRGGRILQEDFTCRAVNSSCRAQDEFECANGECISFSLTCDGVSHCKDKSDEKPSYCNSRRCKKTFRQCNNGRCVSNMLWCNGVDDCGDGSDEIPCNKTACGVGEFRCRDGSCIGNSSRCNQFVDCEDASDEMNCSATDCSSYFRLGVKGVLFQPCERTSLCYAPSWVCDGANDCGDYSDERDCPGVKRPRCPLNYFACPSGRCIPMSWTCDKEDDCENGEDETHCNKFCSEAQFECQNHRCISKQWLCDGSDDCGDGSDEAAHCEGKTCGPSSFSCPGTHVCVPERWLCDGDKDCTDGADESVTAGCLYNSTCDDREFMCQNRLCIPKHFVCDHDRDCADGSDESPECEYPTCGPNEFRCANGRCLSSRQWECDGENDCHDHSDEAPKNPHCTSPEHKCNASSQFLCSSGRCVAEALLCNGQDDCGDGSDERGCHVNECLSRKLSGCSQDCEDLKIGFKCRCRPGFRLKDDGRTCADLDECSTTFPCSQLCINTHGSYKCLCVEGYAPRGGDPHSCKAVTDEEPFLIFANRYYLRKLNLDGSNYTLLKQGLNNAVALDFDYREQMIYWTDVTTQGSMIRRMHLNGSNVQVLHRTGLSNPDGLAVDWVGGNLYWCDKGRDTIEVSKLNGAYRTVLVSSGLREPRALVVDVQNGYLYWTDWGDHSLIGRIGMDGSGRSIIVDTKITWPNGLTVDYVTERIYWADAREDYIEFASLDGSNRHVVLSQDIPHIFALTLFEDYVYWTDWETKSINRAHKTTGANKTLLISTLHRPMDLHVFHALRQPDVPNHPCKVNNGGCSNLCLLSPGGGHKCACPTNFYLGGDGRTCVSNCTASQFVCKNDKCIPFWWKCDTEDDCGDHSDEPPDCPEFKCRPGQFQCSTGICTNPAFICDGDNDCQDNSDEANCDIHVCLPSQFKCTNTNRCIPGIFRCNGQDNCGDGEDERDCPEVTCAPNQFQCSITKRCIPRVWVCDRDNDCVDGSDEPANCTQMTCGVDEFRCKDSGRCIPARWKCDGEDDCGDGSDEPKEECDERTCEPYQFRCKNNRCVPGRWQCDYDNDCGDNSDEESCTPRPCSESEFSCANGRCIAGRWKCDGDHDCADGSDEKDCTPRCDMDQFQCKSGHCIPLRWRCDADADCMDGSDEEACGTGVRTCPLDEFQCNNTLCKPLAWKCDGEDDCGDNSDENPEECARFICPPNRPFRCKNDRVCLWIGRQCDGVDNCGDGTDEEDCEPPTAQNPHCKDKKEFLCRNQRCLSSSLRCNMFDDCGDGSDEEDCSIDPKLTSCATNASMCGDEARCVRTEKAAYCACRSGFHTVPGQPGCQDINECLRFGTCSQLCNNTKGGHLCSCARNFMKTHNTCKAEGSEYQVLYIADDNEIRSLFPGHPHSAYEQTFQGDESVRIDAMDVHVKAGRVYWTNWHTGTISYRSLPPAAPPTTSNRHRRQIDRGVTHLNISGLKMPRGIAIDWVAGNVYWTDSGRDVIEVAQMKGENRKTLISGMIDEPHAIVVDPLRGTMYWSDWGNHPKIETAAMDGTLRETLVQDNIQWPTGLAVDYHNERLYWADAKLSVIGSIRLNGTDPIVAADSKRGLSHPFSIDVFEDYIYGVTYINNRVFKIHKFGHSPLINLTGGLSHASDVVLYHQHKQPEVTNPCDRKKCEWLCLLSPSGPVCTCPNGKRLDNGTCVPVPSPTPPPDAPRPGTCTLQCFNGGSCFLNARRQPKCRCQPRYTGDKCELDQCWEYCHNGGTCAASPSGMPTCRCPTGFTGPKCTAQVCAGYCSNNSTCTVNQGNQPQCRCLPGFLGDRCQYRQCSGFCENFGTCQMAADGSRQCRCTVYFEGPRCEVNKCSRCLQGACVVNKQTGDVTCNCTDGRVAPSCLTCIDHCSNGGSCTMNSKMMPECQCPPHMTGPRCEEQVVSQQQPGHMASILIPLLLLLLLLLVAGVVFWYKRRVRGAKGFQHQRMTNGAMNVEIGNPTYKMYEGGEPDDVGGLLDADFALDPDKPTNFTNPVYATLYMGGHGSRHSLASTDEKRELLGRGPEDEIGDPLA
Human recombinant apoE2 (P02649, form named): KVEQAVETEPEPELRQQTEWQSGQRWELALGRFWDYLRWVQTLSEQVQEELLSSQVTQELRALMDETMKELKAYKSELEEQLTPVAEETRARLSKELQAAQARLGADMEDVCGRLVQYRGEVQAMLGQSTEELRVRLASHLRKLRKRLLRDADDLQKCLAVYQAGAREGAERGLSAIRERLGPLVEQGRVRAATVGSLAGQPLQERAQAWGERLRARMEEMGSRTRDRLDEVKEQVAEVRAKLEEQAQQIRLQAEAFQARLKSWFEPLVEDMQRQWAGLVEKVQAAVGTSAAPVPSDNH

No constants are given. Whether binding was seen depends on the method and setting. Some entries that bind do so weakly or less than the wild type.

This assay addresses lipoprotein receptor-related protein (LRP) receptor on murine peritoneal macrophages (mouse) (UniProt Q91ZX7). Nature of the assay: competition with 125I-apoE mimetic peptide on murine peritoneal macrophages, 4 C.

Turning to “Human recombinant apoE2 (from UniProt P02649 19-317) (ligand)”, the binding entry is given as “binds”.
